In PubChem BioAssay AID758 (NMMLSC, 2007):
The whole screen tested about 190,000 compounds, of which about 110 (0.058%) were called active. Inconclusive results, whose numbers are uncertain, are shown with a selection of clear calls.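 Rule for the calls: active = fluorescent GTP binding to Rab7 beads changed by at least 20 points from the 100% baseline, either direction, mostly lower; inconclusive = compound itself probably fluorescent, or too few beads counted; inactive = the rest.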

Tested on: Rab7 GTPase wild type (dog), Bodipy-FL-GTP binding
Experiment: modulators of GTP binding to Rab7, primary screen, biochemical, wildtype, multiplex bead flow cytometry (AID 758);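 note: median green fluorescence of bound Bodipy-FL-GTP per Rab7 bead population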
Conditions: GST-Rab7 beads, fluorescent GTP binding, at 10 µM, actives lie on both sides, untreated = 100%, excess cold GTP = 0%

SMILES | GTP binding activity (percent of control)
CC(C)(C)c1ccccc1NC(=O)c1c(O)c2cccc3c2n(c1=O)CC3 | inactive: 100%
O=C(COC(=O)c1cccnc1Nc1cccc(C(F)(F)F)c1)NCc1ccc2c(c1)OCO2 | inconclusive: 89%
CCOc1ccc(S(=O)(=O)N(C)c2ccc(OCC(=O)Nc3nc(-c4cc(OC)ccc4OC)cs3)cc2)cc1 | inactive: 99%
Cc1nnc(-c2cnn(C)c2N)n1Cc1ccccc1 | inconclusive: 104%
Nc1nc(N)c2sc3nc(C(F)(F)F)cc(C(F)(F)F)c3c2n1 | inconclusive: 88%
COc1ccccc1-c1ccc(SCC(=O)NCc2ccc3c(c2)OCO3)nn1 | inconclusive: 92%
COc1ccc(-c2cc(-c3ccccc3)nc3ncnn23)cc1 | inconclusive: 94%
CC1=NC(=O)C(N=Nc2cccc(C(=O)O)c2)N1c1ccccc1 (configuration not stated) | inconclusive: 91%
Cn1ncc(C(N)=O)c1NC(=S)NC(=O)c1ccc(Br)o1 | inconclusive: 98%
COc1ccc(CCNc2cc(=O)[nH]c(N)n2)cc1 | inconclusive: 79%
Cc1ccc(OCC(=O)N/N=C\c2ccncc2)c(C)c1 | inactive: 101%
O=C(Cc1ccc(Cl)cc1)NNC(=O)c1cnccn1 | inconclusive: 100%
CC(COc1ccccc1)N1CCC(CO)(Cc2ccccc2)CC1 (configuration not stated) | inactive: 96%
CN=c1scc(-c2cccs2)n1/N=C/c1ccc(O)c(O)c1O | inconclusive: 95%
CCOC(=O)Cc1cc(=O)n2[nH]c(C)cc2n1 | inconclusive: 104%
O=C(COc1cc(Cl)ccc1Cl)Nc1nnc(CC(=O)N2CCOCC2)s1 | inactive: 86%
CC(=O)OC(C)C[N+](C)(C)C (configuration not stated) | inconclusive: 102%
CCOC(=O)C1(CCCc2ccccc2)CCN(CC(O)CO)CC1 (configuration not stated) | inconclusive: 96%
COc1ccc(-c2cc(C(=O)OCC(=O)c3ccc(C)c([N+](=O)[O-])c3)c3ccccc3n2)cc1 | inconclusive: 102%
Cc1ccc(Oc2ncccc2C(=O)NC2CCSC2=O)cc1 (configuration not stated) | inactive: 107%
O=C1NC(Cc2ccccc2)C(=O)N1Cc1cc([N+](=O)[O-])cc2c1OCOC2 (configuration not stated) | inconclusive: 96%
C/C(CCC(=O)OC[C@H]1O[C@H](C#Cc2ccccc2)C=C[C@@H]1Oc1ccc(C)cc1)=N\O[C@@H](C)CN1CCCCc2nc(C)c(C)cc21 | inactive: 100%
O=C(O)c1ccccc1C(=O)N1CCN(c2ccccc2)CC1 | inconclusive: 101%

SMILES | GTP binding activity (percent of control)
Cc1cnc(NC(=O)CSc2nnc(C)s2)s1 | inconclusive: 105%
CC(=O)Oc1ccccc1C1C[C@]2(C)CC(=O)NC2N1C(C)=O (some centres not stated) | inactive: 107%
CCCN(CC1CC1)C(=S)Nc1ccc(Oc2ccccc2)cc1 | inactive: 99%
N#C/C(=C/c1ccc(O)c([N+](=O)[O-])c1)C(=O)Nc1ccccc1 | inactive: 102%
Cc1[nH]n2c(=O)c3c(nc2c1-c1ccccc1)CCC3 | inconclusive: 90%
COc1cccc(C(=O)C2CCCN(C(=O)CCC3=NNC(=O)CC3)C2)c1 (configuration not stated) | inconclusive: 98%
CCn1ncc(Br)c1C(=O)Nc1ccccc1OC | inconclusive: 106%
O=C(CSc1ccc2nnc(-c3cccc(F)c3)n2n1)NCC1CCCO1 (configuration not stated) | inconclusive: 105%
O=C(Cc1ccccc1)NCC(=O)OCC(=O)c1cccc([N+](=O)[O-])c1 | inconclusive: 95%
CCC(=O)Nc1cccc(NC(=S)NC(=O)c2ccccc2C)c1 | inactive: 101%
COCCN(C(=O)CCc1nnc(CCc2c[nH]c3ccccc23)o1)C(C)C | inactive: 101%
Cc1cc(OCC(=O)Nc2ccncc2)ccc1Br | inconclusive: 90%
COC(=O)c1c(NC(=O)CSc2nnnn2-c2ccccc2)sc2c1CCC(C)C2 (configuration not stated) | inconclusive: 92%
O=Cc1cn(CC(O)CN2CCCCC2)c2ccccc12 (configuration not stated) | inconclusive: 97%
COc1ccccc1NC(=O)CSc1ccc2nnc(-c3cccnc3)n2n1 | inconclusive: 80%
COc1cc(C(=O)OCC(=O)Nc2sccc2C(N)=O)cc(OC)c1OC | inconclusive: 92%
CCN(CC)S(=O)(=O)c1cccc(-c2n[nH]c(=S)n2/N=C/c2ccc(C(=O)OC)cc2)c1 | inconclusive: 85%
COc1cc(O)cc2occ(-c3ccc(O)cc3)c(=O)c12 | inconclusive: 101%
Cn1c(=N)c(S(=O)(=O)c2ccc(F)cc2)cc2c(=O)n3ccccc3nc21 | inconclusive: 92%
COc1cccc(CN2CCNC(=O)C2CC(=O)NCc2cc(C(C)C)no2)c1 (configuration not stated) | inconclusive: 94%
O=C(Oc1ccc(C(=S)N2CCOCC2)cc1Br)c1ccccc1F | inconclusive: 93%
NNC(=O)CN1C(c2ccccc2Br)=Nc2ccc(Br)cc2C1c1ccccc1 (configuration not stated) | inactive: 97%
[O-]/C(=C(\C(=S)NCc1ccccc1)[n+]1ccccc1)c1ccc(Cl)cc1 | inactive: 96%

SMILES | GTP binding activity (percent of control)
COc1ccccc1NC(=O)CN(C)S(=O)(=O)c1cc(C)ccc1OC | inconclusive: 100%
Cc1[nH]c2ccccc2c1[C@H]1[C@@H](CC#N)C1(C)C | inconclusive: 108%
Cn1c(SCC(N)=O)nnc1C1CCN(C(=O)NCc2ccccc2)CC1 | inconclusive: 103%
CCOc1ccc(CCNS(=O)(=O)c2cccc3nsnc23)cc1OCC | inconclusive: 102%
Cc1sc2nc(-c3ccncc3)[nH]c(=O)c2c1-c1ccccc1 | inconclusive: 92%
CSc1ccccc1C(=O)NCc1ccc(C)cc1 | inconclusive: 91%
O=C(O)c1ccc(/C=N/Nc2ccc(C(F)(F)F)cn2)cc1 | inconclusive: 94%
O=C1CCCN1C(=O)CCC(=O)N1CCCC1=O | inconclusive: 105%
O=C(OCC(=O)N1CCN(C(=O)c2ccco2)CC1)c1cc(=O)c2ccccc2o1 | inconclusive: 99%
COC(=O)c1ccc(C2C(Oc3ccccc3)C(=O)N2CCc2ccc(F)cc2)cc1 (configuration not stated) | inconclusive: 100%
O=C(c1ccccc1NS(=O)(=O)c1cccc([N+](=O)[O-])c1)N1CCOCC1 | inconclusive: 102%
CC1Sc2ccc(C(=O)O)cc2NC1=O (configuration not stated) | inconclusive: 95%
COc1ccc(N2CC(C(=O)N/N=C/c3cc([N+](=O)[O-])ccc3O)CC2=O)cc1 (configuration not stated) | inconclusive: 93%
O=C(c1cc(-c2ccncc2)nc2ccc(Br)cc12)N1CCN(c2ccccn2)CC1 | inconclusive: 93%
O=C(C[n+]1cccc2ccccc21)c1ccc(NC(=O)c2ccccc2)cc1 | inconclusive: 136%
Cn1c(=O)c2c(ncn2CC(O)CNc2cccc(Cl)c2)n(C)c1=O (configuration not stated) | inactive: 107%
Cc1cc(C)n2nc(SCC(=O)N/N=C/c3cccc(Br)c3)nc2n1 | inconclusive: 93%
COc1ccc(-c2c[n+]3c4n2CCCCC4=C(c2ccccc2)C3)cc1 | inconclusive: 102%
CC(C)(C)NC(=O)CN(C(=O)C(=O)Nc1ccc2c(c1)OCCO2)C(C)(C)C | inactive: 107%
O=C(Nn1c(O)c(C=C2N=c3ccccc3=N2)sc1=S)c1ccccc1 | inconclusive: 95%
NC(=O)Cn1nc([N+](=O)[O-])nc1Oc1ccccc1C(=O)N1CCOCC1 | inconclusive: 94%
CCCCOC(=O)NC1CCS(=O)(=O)C1 (configuration not stated) | inconclusive: 103%
Cc1nn(-c2ccc(F)cc2)c(Cl)c1/C=C/C(=O)N1CCNC(=O)C1 | inactive: 98%

SMILES | GTP binding activity (percent of control)
O=C(c1ccco1)N1CCN(c2cc(N3CCOCC3)c(F)cc2[N+](=O)[O-])CC1 | inconclusive: 106%
CNC(=S)NNC(=O)c1noc(C)c1C(=O)N1CCN(C(c2ccccc2)c2ccccc2)CC1 | inactive: 93%
COc1ccc(CNc2ccccc2SC)cc1OC | inconclusive: 102%
COc1ccccc1NC(=O)Nc1cccnc1 | inactive: 94%
Cc1ccc(S(=O)(=O)O/N=C2/CCCc3occc32)cc1 | inconclusive: 104%
O=S(=O)(/N=C(\Nc1ccc(F)cc1)C(F)(F)F)c1ccccc1 | inconclusive: 100%
CSc1ccc(/C=N/NC(=O)c2ccccc2Cl)cc1 | inactive: 99%
CSCCC(=O)Nc1cc(S(=O)(=O)N2CCOCC2)ccc1N1CCN(C)CC1 | inconclusive: 93%
COc1ccc(-c2c(O)c(C#N)c(-c3ccccc3)n(-c3ccc(OC)cc3)c2=O)cc1 | inconclusive: 91%
CCCCCCNc1cc2n(c(=O)n1)CCc1cc(OC)c(OC)cc1-2 | inconclusive: 86%
Cc1cc(-c2ccccc2)nc(N2CCC(C(=O)NCc3ccccc3Cl)CC2)n1 | inactive: 96%
Cc1cccn2c(=O)c(/C=N/O)c(N3CCCCC3)nc12 | inconclusive: 95%
CSc1nc2c(c(=O)n1C)SC(C)C2 (configuration not stated) | inconclusive: 104%
CCOc1ccccc1N1CCN(Cc2c(C)n(C)n(-c3ccccc3)c2=O)CC1 | inactive: 102%
O=C(CN1C(=O)c2ccccc2S1(=O)=O)Nc1cccnc1 | inconclusive: 97%
Cc1ccc(S(=O)(=O)N(C)C)cc1NC(=S)N1CCCCC1CO (configuration not stated) | inconclusive: 100%
CCCCNC(=O)c1onc(CSc2ccccc2C)c1C(=O)O | inconclusive: 90%
COCCNc1nc(=S)[nH]c2cc(OC)c(OC)cc12 | active: 79%
O=[N+]([O-])c1cc(/C=N\Nc2nccs2)ccc1O | inconclusive: 96%
Cc1ccc(O)c(NC(=O)c2cccc(S(=O)(=O)N3CCCCC3)c2)c1 | inconclusive: 95%
Cc1ccc(C)c(OCCn2cc(C(=O)O)c3ccccc32)c1 | active: 136% [activator]
O=C(NCc1cccnc1)Nc1cccc(NC(=O)NCc2cccnc2)c1 | inconclusive: 107%
O=c1c2ccccc2sn1-c1ccccc1 | inconclusive: 101%

Of the compounds above, six have a COOH group:
SMILES | GTP binding activity (percent of control)
CC1=NC(=O)C(N=Nc2cccc(C(=O)O)c2)N1c1ccccc1 (configuration not stated) | inconclusive: 91%
O=C(O)c1ccccc1C(=O)N1CCN(c2ccccc2)CC1 | inconclusive: 101%
O=C(O)c1ccc(/C=N/Nc2ccc(C(F)(F)F)cn2)cc1 | inconclusive: 94%
CC1Sc2ccc(C(=O)O)cc2NC1=O (configuration not stated) | inconclusive: 95%
CCCCNC(=O)c1onc(CSc2ccccc2C)c1C(=O)O | inconclusive: 90%
Cc1ccc(C)c(OCCn2cc(C(=O)O)c3ccccc32)c1 | active: 136% [activator]
